PubChem BioAssay AID686938 – Drosophila RNAi Screening Center – 2013

Purpose: 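Fly genes required for calcium entry once internal stores are emptied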 (primary screen)
System: Drosophila S2R+ cells
Knock-down reagent: long dsRNA against Drosophila genes, about 0.25 µg dsRNA per well, roughly 10,000 cells
Duration: 5 days of knock-down before the calcium assay
Conditions: thapsigargin (SERCA pump blocker) to empty calcium stores; entry signal taken 4 min after adding it
Detection: 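Per-well fluo-4 fluorescence in two replicates, unnormalised, measured in resting cells and 4 min after store depletion by the SERCA blocker thapsigargin; ratio of the two present in few wells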
Direction: calcium entry signal: higher = stronger calcium signal after store depletion; entry to resting ratio: higher = more calcium entry relative to resting level; resting calcium signal: higher = higher resting calcium signal
Units: calcium entry signal in fluorescence units; resting calcium signal in fluorescence units
Active means: 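Called when the plate z-score of the entry-to-rest ratio, mean of duplicates, falls below −3; wells with low overall dye signal (Fmax z below −2) or more than five off-targets excluded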
Meaning of the calls: active = strongly reduced calcium entry; inactive = no strong reduction
The screen tested about 23,000 reagents; shown is a random part of those with a known target gene and a result. In the full data, 75 (0.33%) got an active call. 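Raw plate signals without normalisation; calls rest on plate z-scores that were not deposited; ratio present for only 364 wells.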 Reagents against one gene are numbered here. A plus sign joins genes that one reagent is predicted to hit. Not stated in the record: the dose of the treatment.

Vha100-4 gave calcium entry signal, replicate 1 = 4.34e7; calcium entry signal, replicate 2 = 4.47e7; resting calcium signal, replicate 1 = 6.12e7; resting calcium signal, replicate 2 = 2.25e7; inactive.
With knock-down of CG14628, the screen gave calcium entry signal, replicate 1 = 3.51e7; calcium entry signal, replicate 2 = 6.80e7; entry to resting ratio 2; resting calcium signal, replicate 1 = 1.74e7; resting calcium signal, replicate 2 = 2.36e7; inactive.
Silencing of CG15577 resulted in: calcium entry signal, replicate 1 = 3.36e7; calcium entry signal, replicate 2 = 4.58e7; resting calcium signal, replicate 1 = 1.51e7; resting calcium signal, replicate 2 = 1.99e7; inactive.
Against Incenp #1, the values are calcium entry signal, replicate 1 = 4.16e7; resting calcium signal, replicate 1 = 2.05e7; inactive.
Incenp #2 showed calcium entry signal, replicate 1 = 2.97e7; calcium entry signal, replicate 2 = 5.27e7; resting calcium signal, replicate 1 = 1.82e7; resting calcium signal, replicate 2 = 3.32e7; inactive.
With knock-down of Taf12, the screen gave calcium entry signal, replicate 1 = 2.26e7; calcium entry signal, replicate 2 = 2.29e7; resting calcium signal, replicate 1 = 1.14e7; resting calcium signal, replicate 2 = 1.31e7; inactive.
With knock-down of CG13280, the record shows calcium entry signal, replicate 1 = 3.95e7; calcium entry signal, replicate 2 = 1.99e7; resting calcium signal, replicate 1 = 1.79e7; resting calcium signal, replicate 2 = 1.07e7; inactive.
For Spc25 the deposit lists calcium entry signal, replicate 1 = 2.02e7; calcium entry signal, replicate 2 = 3.53e7; resting calcium signal, replicate 1 = 1.10e7; resting calcium signal, replicate 2 = 6.37e7; inactive.
Knock-down of Ts #1 came out at: calcium entry signal, replicate 1 = 2.05e7; calcium entry signal, replicate 2 = 2.05e7; resting calcium signal, replicate 1 = 1.10e7; resting calcium signal, replicate 2 = 9.95e6; inactive.
Ts #2 gave calcium entry signal, replicate 1 = 2.59e7; calcium entry signal, replicate 2 = 4.98e7; resting calcium signal, replicate 1 = 1.47e7; resting calcium signal, replicate 2 = 2.70e7; inactive.
Silencing of CG31549 resulted in: calcium entry signal, replicate 1 = 4.06e7; calcium entry signal, replicate 2 = 3.27e7; resting calcium signal, replicate 1 = 2.31e7; resting calcium signal, replicate 2 = 1.67e7; inactive.
With knock-down of snoRNA:Me28S-A982b + Uhg4 + snoRNA:Me28S-G3255a + 1 more, the record shows calcium entry signal, replicate 1 = 2.85e7; calcium entry signal, replicate 2 = 3.88e7; resting calcium signal, replicate 1 = 1.32e7; resting calcium signal, replicate 2 = 1.81e7; inactive.
CG13722 #1 scored calcium entry signal, replicate 1 = 2.17e7; calcium entry signal, replicate 2 = 3.36e7; resting calcium signal, replicate 1 = 1.16e7; resting calcium signal, replicate 2 = 1.50e7; inactive.
CG13722 #2 scored calcium entry signal, replicate 1 = 4.60e7; calcium entry signal, replicate 2 = 3.13e7; resting calcium signal, replicate 1 = 1.91e7; resting calcium signal, replicate 2 = 1.49e7; inactive.
For CG13255, the entry reads calcium entry signal, replicate 1 = 2.87e7; calcium entry signal, replicate 2 = 4.89e7; resting calcium signal, replicate 1 = 1.44e7; resting calcium signal, replicate 2 = 2.04e7; inactive.
For CG11693, the values are calcium entry signal, replicate 1 = 3.16e7; calcium entry signal, replicate 2 = 3.45e7; resting calcium signal, replicate 1 = 1.65e7; resting calcium signal, replicate 2 = 1.71e7; inactive.
Knock-down of CG11811 resulted in: calcium entry signal, replicate 1 = 2.27e7; calcium entry signal, replicate 2 = 3.28e7; resting calcium signal, replicate 1 = 1.24e7; resting calcium signal, replicate 2 = 1.50e7; inactive.

Reprinted from the entries so far for reference:
CG11693 | calcium entry signal, replicate 1 = 3.16e7; calcium entry signal, replicate 2 = 3.45e7; resting calcium signal, replicate 1 = 1.65e7; resting calcium signal, replicate 2 = 1.71e7; Call = inactive
CG11811 | calcium entry signal, replicate 1 = 2.27e7; calcium entry signal, replicate 2 = 3.28e7; resting calcium signal, replicate 1 = 1.24e7; resting calcium signal, replicate 2 = 1.50e7; Call = inactive

The listing continues.
Against Rdl #1 the deposit lists calcium entry signal, replicate 1 = 5.06e7; calcium entry signal, replicate 2 = 5.05e7; resting calcium signal, replicate 1 = 2.40e7; resting calcium signal, replicate 2 = 2.21e7; inactive.
Rdl #2 scored calcium entry signal, replicate 1 = 5.68e7; calcium entry signal, replicate 2 = 5.07e7; resting calcium signal, replicate 1 = 3.76e7; resting calcium signal, replicate 2 = 2.04e7; inactive.
For D19A the deposit lists calcium entry signal, replicate 1 = 2.96e7; calcium entry signal, replicate 2 = 2.39e7; resting calcium signal, replicate 1 = 2.23e7; resting calcium signal, replicate 2 = 1.26e7; inactive.
Depletion of Bdbt came out at: calcium entry signal, replicate 1 = 2.79e7; calcium entry signal, replicate 2 = 3.40e7; resting calcium signal, replicate 1 = 6.68e7; resting calcium signal, replicate 2 = 1.52e7; inactive.
Depletion of Rab3-GEF #1 gave: calcium entry signal, replicate 1 = 3.96e7; calcium entry signal, replicate 2 = 2.40e7; resting calcium signal, replicate 1 = 2.09e7; resting calcium signal, replicate 2 = 1.18e7; inactive.
Against Rab3-GEF #2, the values are calcium entry signal, replicate 1 = 4.03e7; calcium entry signal, replicate 2 = 3.08e7; resting calcium signal, replicate 1 = 2.03e7; resting calcium signal, replicate 2 = 1.43e7; inactive.
Rab3-GEF #3 scored calcium entry signal, replicate 1 = 4.65e7; calcium entry signal, replicate 2 = 2.92e7; resting calcium signal, replicate 1 = 2.41e7; resting calcium signal, replicate 2 = 1.56e7; inactive.
Gr59b showed calcium entry signal, replicate 1 = 4.53e7; calcium entry signal, replicate 2 = 5.11e7; resting calcium signal, replicate 1 = 2.22e7; resting calcium signal, replicate 2 = 2.34e7; inactive.
elB scored calcium entry signal, replicate 1 = 5.24e7; calcium entry signal, replicate 2 = 3.19e7; resting calcium signal, replicate 1 = 2.33e7; resting calcium signal, replicate 2 = 1.75e7; inactive.
Against mth the deposit lists calcium entry signal, replicate 1 = 4.49e7; calcium entry signal, replicate 2 = 4.00e7; resting calcium signal, replicate 1 = 2.04e7; resting calcium signal, replicate 2 = 2.02e7; inactive.
